Source: article PMC4764564
These are yes or no findings as the source states them, for the method shown. Binding seen in cells or lysates may run through a third protein. Some entries that bind do so weakly or less than the wild type.

Amino acid sequences for entries named in this document (tags omitted). Residues count along the entry.
UniProt P19490, residues 19-907: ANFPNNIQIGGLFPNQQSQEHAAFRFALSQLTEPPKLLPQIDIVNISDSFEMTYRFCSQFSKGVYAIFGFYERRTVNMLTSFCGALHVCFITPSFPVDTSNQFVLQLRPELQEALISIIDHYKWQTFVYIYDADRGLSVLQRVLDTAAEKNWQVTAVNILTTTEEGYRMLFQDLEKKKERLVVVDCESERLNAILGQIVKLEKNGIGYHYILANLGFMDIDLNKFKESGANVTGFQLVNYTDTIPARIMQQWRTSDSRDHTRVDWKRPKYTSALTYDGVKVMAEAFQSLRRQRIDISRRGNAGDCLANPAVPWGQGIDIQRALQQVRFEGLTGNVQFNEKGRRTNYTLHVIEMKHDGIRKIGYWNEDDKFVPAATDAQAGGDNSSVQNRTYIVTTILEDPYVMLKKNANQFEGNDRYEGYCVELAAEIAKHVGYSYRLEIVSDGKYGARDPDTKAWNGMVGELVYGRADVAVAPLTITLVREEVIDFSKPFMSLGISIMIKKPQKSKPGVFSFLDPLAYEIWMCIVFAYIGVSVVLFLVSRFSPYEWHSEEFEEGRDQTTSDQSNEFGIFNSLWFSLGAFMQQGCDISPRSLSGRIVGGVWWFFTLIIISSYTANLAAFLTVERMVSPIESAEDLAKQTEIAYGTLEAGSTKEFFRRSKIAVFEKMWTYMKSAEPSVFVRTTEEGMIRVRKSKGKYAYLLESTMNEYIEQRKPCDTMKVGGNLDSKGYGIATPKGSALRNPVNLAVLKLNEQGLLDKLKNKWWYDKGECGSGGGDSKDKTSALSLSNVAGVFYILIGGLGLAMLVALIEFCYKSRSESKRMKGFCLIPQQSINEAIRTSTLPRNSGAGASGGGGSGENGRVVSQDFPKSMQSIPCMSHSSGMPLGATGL
UniProt P58390, residues 266-839: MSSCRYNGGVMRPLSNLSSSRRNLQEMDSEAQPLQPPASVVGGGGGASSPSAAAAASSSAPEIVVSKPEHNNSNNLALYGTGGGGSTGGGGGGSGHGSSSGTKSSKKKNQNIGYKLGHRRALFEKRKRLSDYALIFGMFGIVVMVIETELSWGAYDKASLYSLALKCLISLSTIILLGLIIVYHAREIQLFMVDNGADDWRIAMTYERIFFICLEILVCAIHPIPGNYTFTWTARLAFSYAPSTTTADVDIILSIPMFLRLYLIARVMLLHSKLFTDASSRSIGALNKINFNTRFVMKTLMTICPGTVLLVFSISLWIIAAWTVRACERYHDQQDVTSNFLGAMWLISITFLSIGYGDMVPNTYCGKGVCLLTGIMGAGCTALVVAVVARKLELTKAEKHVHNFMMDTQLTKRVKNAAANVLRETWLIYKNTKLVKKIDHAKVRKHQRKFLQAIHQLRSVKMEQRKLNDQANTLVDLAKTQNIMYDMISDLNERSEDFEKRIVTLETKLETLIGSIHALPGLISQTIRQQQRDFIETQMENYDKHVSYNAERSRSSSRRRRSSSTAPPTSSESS
UniProt Q811D0: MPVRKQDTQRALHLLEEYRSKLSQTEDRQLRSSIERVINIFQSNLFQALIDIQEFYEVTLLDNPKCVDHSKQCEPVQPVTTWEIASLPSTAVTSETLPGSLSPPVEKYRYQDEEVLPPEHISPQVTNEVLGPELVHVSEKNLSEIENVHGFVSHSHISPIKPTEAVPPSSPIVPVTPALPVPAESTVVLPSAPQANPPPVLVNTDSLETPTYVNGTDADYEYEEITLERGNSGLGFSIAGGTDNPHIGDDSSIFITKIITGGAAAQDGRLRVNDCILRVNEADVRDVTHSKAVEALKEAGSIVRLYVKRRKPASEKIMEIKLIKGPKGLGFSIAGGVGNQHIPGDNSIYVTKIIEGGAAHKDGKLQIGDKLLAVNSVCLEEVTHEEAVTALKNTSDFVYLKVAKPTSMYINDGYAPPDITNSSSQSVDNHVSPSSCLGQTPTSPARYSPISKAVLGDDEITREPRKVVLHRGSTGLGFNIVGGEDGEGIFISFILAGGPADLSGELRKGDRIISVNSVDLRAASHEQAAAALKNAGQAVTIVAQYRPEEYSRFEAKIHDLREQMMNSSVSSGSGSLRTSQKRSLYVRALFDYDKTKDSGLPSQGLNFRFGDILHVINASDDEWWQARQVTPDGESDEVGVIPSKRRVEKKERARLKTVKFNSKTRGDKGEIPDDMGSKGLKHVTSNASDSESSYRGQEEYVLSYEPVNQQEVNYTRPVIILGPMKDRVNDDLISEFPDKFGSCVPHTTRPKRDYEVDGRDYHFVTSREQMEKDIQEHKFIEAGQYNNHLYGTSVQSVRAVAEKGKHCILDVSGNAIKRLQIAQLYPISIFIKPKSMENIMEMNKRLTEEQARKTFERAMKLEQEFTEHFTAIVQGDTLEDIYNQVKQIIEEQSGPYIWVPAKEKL

Legend:
[1] = target: GluA1 (UniProt P19490); test: co-IP; HEK293 cells co-transfected; lysis in 20 mM HEPES pH 7.5, 150 mM NaCl, 10% glycerol, 2 mM EDTA, 1% beta-D-dodecyl maltoside; anti-SK2 (guinea pig), anti-GluA1 or control IgG with protein A/G agarose overnight at 4°C; Western blot
[2] = target: myc-SK2-S (UniProt P58390); test: as above

binding [1]: binds
binding [2]: no binding
Substance: C8-SAP97 (from UniProt Q811D0 1-905)
